Reference: PubChem BioAssay AID1259405 (NCATS, 2018)
The deposit covers about 50,000 reagents; this is an unselected part. Of all reagents, about 4,000 (8%) are marked active. 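Mouse siRNA library applied to hamster cells; one well for each siRNA.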 Unmarked entries are inactive. Reagents against one gene are numbered here.

Test: 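Silenced genes that increase secreted GFP made by CHO cells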 (primary screen)
Cells: Chinese hamster CHO-K1 ovary cells with stable secreted eGFP expression
Knock-down reagent: single siRNA against mouse genes, 0.8 pmol siRNA per well (2 µl of 400 nM stock)
Duration: 3 days
Measured: 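Per-well intracellular GFP measured by laser scanning cytometry, plus viability from ATP luminescence, each relative to plate median of non-targeting control wells, in %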
Scale: GFP, % of control: higher = more GFP per well, higher productivity; viability (ATP), % of control: higher = more viable cells (more ATP)
Hit rule: 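Called active when intracellular GFP, relative to negative control, is at or above 120%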

| gene symbol | reagent | GFP, % of control | viability (ATP), % of control |
| --- | --- | --- | --- |
| Clybl | 1 | 93.7 | 100 |
| Clybl | 2 | 75.2 | 43.1 |
| Clybl | 3 | 84.4 | 90.1 |
| Apol7c | 1 | 34.6 | 36.3 |
| Apol7c | 2 | 108 | 73 |
| Apol7c | 3 | 82.1 | 107 |
| Or6c215 | 1 | 126 (active) | 84.6 |
| Or6c215 | 2 | 54.3 | 60 |
| Or6c215 | 3 | 66.7 | 70.6 |
| Slc36a3 | 1 | 58.9 | 105 |
| Slc36a3 | 2 | 93.6 | 31.7 |
| Slc36a3 | 3 | 88.6 | 82.8 |
| Ager | 1 | 63.8 | 86.3 |
| Ager | 2 | 129 (active) | 43.8 |
| Ager | 3 | 90.4 | 68.7 |
| Card14 | 1 | 121 (active) | 161 |
| Card14 | 2 | 172 (active) | 82.7 |
| Mxra8 | 1 | 108 | 114 |
| Mxra8 | 2 | 62.7 | 104 |
| Mxra8 | 3 | 56.5 | 58.8 |
| Hdgf | 1 | 61.8 | 44.6 |
| Hdgf | 2 | 88.9 | 68.3 |
| Hdgf | 3 | 88.9 | 72 |
| Abcc3 | 1 | 118 | 114 |
| Abcc3 | 2 | 68.4 | 74.9 |
| Abcc3 | 3 | 69.3 | 77 |
| Ddx27 | 1 | 88.9 | 74.6 |
| Ddx27 | 2 | 86.6 | 82.3 |
| Ddx27 | 3 | 55.7 | 46.5 |
| Slc30a5 | 1 | 57.6 | 77.2 |
| Slc30a5 | 2 | 67 | 97.3 |
| Slc30a5 | 3 | 93.7 | 114 |
| Slc9a6 | 1 | 118 | 63.5 |
| Slc9a6 | 2 | 76.7 | 78.8 |
| Slc9a6 | 3 | 87.3 | 78.4 |
| Stx4a | 1 | 124 (active) | 97.1 |
| Stx4a | 2 | 52.2 | 64.5 |
| Lepr | 1 | 77.8 | 36.9 |
| Lepr | 2 | 91.7 | 67.7 |
| Lepr | 3 | 81.5 | 52 |
| Prpf4b | 1 | 41.2 | 39.5 |
| Snupn | 1 | 115 | 80.7 |
| Snupn | 2 | 20.2 | 45.5 |
| Adtrp | 1 | 89 | 81.2 |
| Adtrp | 2 | 115 | 71.8 |
| Adtrp | 3 | 69.7 | 81.5 |
| Septin2 | 1 | 65.3 | 80.7 |
| Septin2 | 2 | 43.5 | 47.7 |
| Septin2 | 3 | 62.6 | 64.2 |
| Notch2 | 1 | 115 | 95.4 |
| Notch2 | 2 | 87.6 | 81.2 |
| Notch2 | 3 | 58.9 | 90.8 |
| Tas2r126 | 1 | 70.2 | 104 |
| Tas2r126 | 2 | 99.1 | 83.4 |
| Tas2r126 | 3 | 42.1 | 65.6 |
| Il4 | 1 | 126 (active) | 125 |
| Il4 | 2 | 80 | 81.3 |
| Pramel27 | 1 | 93.1 | 117 |
| Pramel27 | 2 | 90.2 | 119 |
| Pramel27 | 3 | 73.9 | 56.7 |
| Mypop | 1 | 96.8 | 81.5 |
| Mypop | 2 | 31.8 | 51 |
| Mypop | 3 | 71.3 | 106 |
| Ech1 | 1 | 88.6 | 87.2 |
| Ech1 | 2 | 69.9 | 80.3 |
| Ech1 | 3 | 76.3 | 84.3 |
| Pag1 | 1 | 92.6 | 88 |
| Pag1 | 2 | 79.8 | 83.3 |
| Pag1 | 3 | 110 | 80.9 |
| Ubiad1 | 1 | 117 | 88.3 |
| Ubiad1 | 2 | 82.3 | 80.9 |
| Ubiad1 | 3 | 54.6 | 68.5 |
| Atp5mc2 | 1 | 65.6 | 77.1 |
| Atp5mc2 | 2 | 68.8 | 99.2 |
| Atp5mc2 | 3 | 69.8 | 66 |
| Rtp1 | 1 | 51.2 | 75.1 |
| Rtp1 | 2 | 74.1 | 101 |
| Rtp1 | 3 | 55.7 | 85.6 |
| Naaladl1 | 1 | 95.2 | 77.5 |
| Naaladl1 | 2 | 85.2 | 79.2 |
| Naaladl1 | 3 | 80.5 | 76.9 |
| Olfm5 | 1 | 87.6 | 94.6 |
| Olfm5 | 2 | 39 | 70.7 |
| Olfm5 | 3 | 62.1 | 70.8 |
| Zfp110 | 1 | 61.9 | 60.9 |
| Zfp110 | 2 | 67.7 | 71.3 |
| Zfp110 | 3 | 32.9 | 68.2 |
| Doc2b | 1 | 67.4 | 87.7 |
| Doc2b | 2 | 145 (active) | 92.2 |
| Doc2b | 3 | 63.3 | 89.5 |
| Rab3d | 1 | 149 (active) | 103 |
| Rab3d | 2 | 105 | 81.4 |
| Pgap2 | 1 | 72.1 | 48 |
| Pgap2 | 2 | 76.4 | 58.4 |
| Pgap2 | 3 | 68.5 | 65.3 |
| Cimap2 | 1 | 34.5 | 23.9 |
| Cimap2 | 2 | 97.8 | 89.9 |
| Cimap2 | 3 | 73.5 | 70.6 |
| Sell | 1 | 86 | 64.7 |
| Sell | 2 | 98.1 | 70.5 |
| Krtap5-5 | 1 | 109 | 60.5 |
| Krtap5-5 | 2 | 77.2 | 65.1 |
| Krtap5-5 | 3 | 80.2 | 70 |
| Tmem177 | 1 | 75.6 | 77.8 |
| Tmem177 | 2 | 62 | 75.5 |
| Tmem177 | 3 | 68.8 | 65.4 |
| Xirp1 | 1 | 69.1 | 101 |
| Xirp1 | 2 | 78.5 | 99.7 |
| Xirp1 | 3 | 99.4 | 91.9 |

13 entries from above, ordered by “viability (ATP), % of control”, ascending.
| gene symbol | reagent | GFP, % of control | viability (ATP), % of control |
| --- | --- | --- | --- |
| Zfp110 | 1 | 61.9 | 60.9 |
| Zfp110 | 3 | 32.9 | 68.2 |
| Olfm5 | 2 | 39 | 70.7 |
| Olfm5 | 3 | 62.1 | 70.8 |
| Zfp110 | 2 | 67.7 | 71.3 |
| Rtp1 | 1 | 51.2 | 75.1 |
| Naaladl1 | 3 | 80.5 | 76.9 |
| Naaladl1 | 1 | 95.2 | 77.5 |
| Naaladl1 | 2 | 85.2 | 79.2 |
| Rtp1 | 3 | 55.7 | 85.6 |
| Doc2b | 1 | 67.4 | 87.7 |
| Olfm5 | 1 | 87.6 | 94.6 |
| Rtp1 | 2 | 74.1 | 101 |
